Data from patent US5227467 (dated 1993).
HELM strings list residues between dots; [ac] is acetyl, [am] amide, other brackets name non-standard units.

Experiment: general procedure: solution-phase peptide synthesis; N,N-bis(2-oxo-3-oxazolidinyl)phosphorodiamidic chloride; benzotriazol-1-yloxytri
Details: coupling step

Substance	step yield
Boc-Abu-Sar-MeLeu-4-F-Val-MeLeu-Ala-OBzl	84%
N,O-isopropylidene-MeBmt-Abu-Sar-MeLeu-4-Fluoro-Val-MeLeu-AlaOBzl	64%
Boc-D-Ala-MeLeu-MeLeu-MeVal-MeBmt-Abu-Sar-MeLeu-4-Fluoro-Val-MeLeu-AlaOBzl	62.5%
Boc-MeLeu-4-F-Val-MeLeu-Ala-OBzl	33%

Same assay, conditions: cyclisation step

Substance	cyclisation yield
PEPTIDE1{[MeBmt].[Abu].[Sar].[MeLeu].[4-fluoro-Val].[MeLeu].A.[dA].[MeLeu].[MeLeu].[MeVal]}$PEPTIDE1,PEPTIDE1,1:R1-11:R2$$$V2.0	48.7%

Same assay, conditions: late stage modification step

Substance	step yield
H-D-Ala-MeLeu-MeLeu-MeVal-MeBmt-Abu-Sar-MeLeu-4-Fluoro-Val-MeLeu-AlaOH	81%
H-MeBmt-Abu-Sar-MeLeu-4-Fluoro-Val-MeLeu-AlaOBzl	70.5%
H-Abu-Sar-MeLeu-4-F-Val-MeLeu-Ala-OBzl	95%
Boc-D-Ala-MeLeu-MeLeu-MeVal-MeBmt-Abu-Sar-MeLeu-4-Fluoro-Val-MeLeu-AlaOH	65.8%
